Source: patent US20230203127A1
These are yes or no findings as the source states them, for the method shown. Binding can be weak; no strength is given.

Target: HLA-A*02:01 (human)
Assay: UV peptide-exchange ELISA, exchange yield grade

In the case of SLTGANITV [… (SEQ ID NO: 218)], the binding is reported as “binds”.
